Test results published in doi:10.1101/2024.04.22.590536 (bioRxiv, 2024).
These are yes or no findings as the source states them, for the method shown. In cells and extracts the contact can be indirect. A yes stands for co-enrichment or nearness to the bait. Other partners may have been found. Sequences can lack the tags named with a protein.

Biological target: T1, Stm1-3xMyc (S. cerevisiae) (UniProt P39015)
T1 sequence: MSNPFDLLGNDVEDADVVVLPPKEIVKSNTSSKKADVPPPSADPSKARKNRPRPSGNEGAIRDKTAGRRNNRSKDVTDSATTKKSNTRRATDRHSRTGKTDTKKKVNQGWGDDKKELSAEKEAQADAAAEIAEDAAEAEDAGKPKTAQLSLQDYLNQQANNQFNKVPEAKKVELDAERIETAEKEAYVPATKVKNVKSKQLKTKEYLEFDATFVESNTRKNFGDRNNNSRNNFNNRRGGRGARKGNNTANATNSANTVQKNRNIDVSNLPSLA
Assay: affinity purification with mass spectrometry

B1: Ckb2 (endogenous) (protein, UniProt P38930 1-258)
chain: MGSRSENVGTVTREGSRVEQDDVLMDDDSDSSEYVDMWIDLFLGRKGHEYFCDVDPEYITDRFNLMNLQKTVSKFSYVVQYIVDDLDDSILENMTHARLEQLESDSRKLYGLIHARYIITIKGLQKMYAKYKEADFGRCPRVYCNLQQLLPVGLHDIPGIDCVKLYCPSCEDLYIPKSSRHSSIDGAYFGTSFPGMFLQAFPDMVPKHPTKRYVPKIFGFELHKQAQLTRWQELQRLKLVEKLESKDVDLTKSGGFKT
For B1, the binding was “binds”.

B2: Rrp7 (endogenous) (protein, UniProt P25368 1-297)
chain: MGIEDISAMKNGFIVVPFKLPDHKALPKSQEASLHFMFAKRHQSSNSNESDCLFLVNLPLLSNIEHMKKFVGQLCGKYDTVSHVEELLYNDEFGLHEVDLSALTSDLMSSTDVNEKRYTPRNTALLKFVDAASINNCWNALKKYSNLHAKHPNELFEWTYTTPSFTTFVNFYKPLDIDYLKEDIHTHMAIFEQREAQAQEDVQSSIVDEDGFTLVVGKNTKSLNSIRKKILNKNPLSKHENKAKPISNIDKKAKKDFYRFQVRERKKQEINQLLSKFKEDQERIKVMKAKRKFNPYT
For B2, the binding was “binds”.

B3: Utp22 (endogenous) (protein, UniProt P53254 1-1237)
chain: MATSVKRKASETSDQNIVKVQKKHSTQDSTTDNGSKENDHSSQAINERTVPEQENDESDTSPESNEVATNTAATRHNGKVTATESYDIHIARETAELFKSNIFKLQIDELLEQVKLKQKHVLKVEKFLHKLYDILQEIPDWEEKSLAEVDSFFKNKIVSVPFVDPKPIPQNTNYKFNYKKPDISLIGSFALKAGIYQPNGSSIDTLLTMPKELFEKKDFLNFRCLHKRSVYLAYLTHHLLILLKKDKLDSFLQLEYSYFDNDPLLPILRISCSKPTGDSLSDYNFYKTRFSINLLIGFPYKVFEPKKLLPNRNCIRIAQESKEQSLPATPLYNFSVLSSSTHENYLKYLYKTKKQTESFVEATVLGRLWLQQRGFSSNMSHSGSLGGFGTFEFTILMAALLNGGGINSNKILLHGFSSYQLFKGVIKYLATMDLCHDGHLQFHSNPENSSSSPASKYIDEGFQTPTLFDKSTKVNILTKMTVSSYQILKEYAGETLRMLNNVVQDQFSNIFLTNISRFDNLKYDLCYDVQLPLGKYNNLETSLAATFGSMERVKFITLENFLAHKITNVARYALGDRIKYIQIEMVGQKSDFPITKRKVYSNTGGNHFNFDFVRVKLIVNPSECDKLVTKGPAHSETMSTEAAVFKNFWGIKSSLRRFKDGSITHCCVWSTSSSEPIISSIVNFALQKHVSKKAQISNETIKKFHNFLPLPNLPSSAKTSVLNLSSFFNLKKSFDDLYKIIFQMKLPLSVKSILPVGSAFRYTSLCQPVPFAYSDPDFFQDVILEFETSPKWPDEITSLEKAKTAFLLKIQEELSANSSTYRSFFSRDESIPYNLEIVTLNILTPEGYGFKFRVLTERDEILYLRAIANARNELKPELEATFLKFTAKYLASVRHTRTLENISHSYQFYSPVVRLFKRWLDTHLLLGHITDELAELIAIKPFVDPAPYFIPGSLENGFLKVLKFISQWNWKDDPLILDLVKPEDDIRDTFETSIGAGSELDSKTMKKLSERLTLAQYKGIQMNFTNLRNSDPNGTHLQFFVASKNDPSGILYSSGIPLPIATRLTALAKVAVNLLQTHGLNQQTINLLFTPGLKDYDFVVDLRTPIGLKSSCGILSATEFKNITNDQAPSNFPENLNDLSEKMDPTYQLVKYLNLKYKNSLILSSRKYIGVNGGEKGDKNVITGLIKPLFKGAHKFRVNLDCNVKPVDDENVILNKEAIFHEIAAFGNDMVINFETD
With B3 the binding was “binds”.

B4: Ifh1 (endogenous) (protein, UniProt P39520 1-1085)
chain: MAGKKSPRKSTINHSTHSGKLPANIKRLIKKGESDTKSRQSPPTLSTTRPRRFSLIYSSESSLSDVSDSDKNKSTNPHKIKRKAKNISNNSQGKKSKLIQRQIDNDDEGTESSDYQAVTDGEESENEEEESEEEEEDDDEDDDDDDDDGSDSDSDSETSSDDENIDFVKLTAQRKKRAMKALSAMNTNSNTLYSSRENSNKNKSVKLSPKKENEEEQKEEKEKEKEEQQKQQESNKKEVNGSGTTTTQQALSFKFKKEDDGISFGNGNEGYNEDIGEEVLDLKNKENNGNEEDKLDSKVMLGNNDELRFPNISESDESEYDIDQDAYFDVINNEDSHGEIGTDLETGEDDLPILEEEEQNIVSELQNDDELSFDGSIHEEGSDPVEDAENKFLQNEYNQENGYDEEDDEEDEIMSDFDMPFYEDPKFANLYYYGDGSEPKLSLSTSLPLMLNDEKLSKLKKKEAKKREQEERKQRRKLYKKTQKPSTRTTSNVDNDEYIFNVFFQSDDENSGHKSKKGRHKSGKSHIEHKNKGSNLIKSNDDLEPSTHSTVLNSGKYDSSDDEYDNILLDVAHMPSDDECSESETSHDADTDEELRALDSDSLDIGTELDDDYEDDDDDSSVTNVFIDIDDLDPDSFYFHYDSDGSSSLISSNSDKENSDGSKDCKHDLLETVVYVDDESTDEDDNLPPPSSRSKNIGSKAKEIVSSNVVGLRPPKLGTWETDNKPFSIIDGLSTKSLYALIQEHQQLREQHQRAQTPDVKREGSSNGNNGDELTLNELLNMSELEDDSPSHTDDMENNYNDAINSKSTNGHAADWYEVPKVPLSAFRNKGINAYEEDEYMIPANSNRKVPIGYIGNERTRKKIDKMKELQRKKTEKKRQLKKKKKLLKIRKQRQKAIKEQETMNLQLGINGHEIIGNNNSHSDINTGTDFTTNENTPMNELPSHAPEDASLIPHNSDLAVDSNTRKNSTKSVGLDEIHEILGKDENDLLSVGDINGYDAQEGHVIEDTDADILASLTAPVQFDNTLSHENSNSMWRRRQSMVEAAAENLRFTKNGLFSESALADIEGIMGNDVNHSFEFNDVLQ
In the case of B4, the binding is reported as “binds”.
